In doi:10.1101/2025.10.08.681182:
These are yes or no findings as the source states them, for the method shown.

Sequences of proteins named here, by UniProt entry; tags and fusion partners are left off. A change or cut given only in a name is not applied to a line headed by its entry.
UniProt P25342: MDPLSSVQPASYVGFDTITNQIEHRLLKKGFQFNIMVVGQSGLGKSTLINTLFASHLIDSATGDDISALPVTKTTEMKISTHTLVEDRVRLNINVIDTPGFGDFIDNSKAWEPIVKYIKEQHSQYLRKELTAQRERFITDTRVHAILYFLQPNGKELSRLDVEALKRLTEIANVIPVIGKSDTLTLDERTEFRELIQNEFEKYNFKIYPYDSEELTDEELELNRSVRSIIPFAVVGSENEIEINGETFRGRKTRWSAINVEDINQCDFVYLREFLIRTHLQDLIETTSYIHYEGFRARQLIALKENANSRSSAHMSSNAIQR
UniProt P32457: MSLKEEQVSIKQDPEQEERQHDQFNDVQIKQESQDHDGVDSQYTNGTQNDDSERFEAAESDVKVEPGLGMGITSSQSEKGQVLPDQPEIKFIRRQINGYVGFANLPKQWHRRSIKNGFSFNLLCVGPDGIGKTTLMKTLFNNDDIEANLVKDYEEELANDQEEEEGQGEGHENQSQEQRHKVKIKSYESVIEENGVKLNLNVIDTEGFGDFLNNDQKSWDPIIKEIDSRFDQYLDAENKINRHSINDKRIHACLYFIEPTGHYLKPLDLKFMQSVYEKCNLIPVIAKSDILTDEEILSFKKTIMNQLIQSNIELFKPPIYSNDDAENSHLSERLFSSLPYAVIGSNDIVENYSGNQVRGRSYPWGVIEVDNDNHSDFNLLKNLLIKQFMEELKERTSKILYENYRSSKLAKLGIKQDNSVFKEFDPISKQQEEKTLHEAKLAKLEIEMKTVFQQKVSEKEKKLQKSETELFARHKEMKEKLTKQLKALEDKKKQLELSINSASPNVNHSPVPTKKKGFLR
UniProt P32468: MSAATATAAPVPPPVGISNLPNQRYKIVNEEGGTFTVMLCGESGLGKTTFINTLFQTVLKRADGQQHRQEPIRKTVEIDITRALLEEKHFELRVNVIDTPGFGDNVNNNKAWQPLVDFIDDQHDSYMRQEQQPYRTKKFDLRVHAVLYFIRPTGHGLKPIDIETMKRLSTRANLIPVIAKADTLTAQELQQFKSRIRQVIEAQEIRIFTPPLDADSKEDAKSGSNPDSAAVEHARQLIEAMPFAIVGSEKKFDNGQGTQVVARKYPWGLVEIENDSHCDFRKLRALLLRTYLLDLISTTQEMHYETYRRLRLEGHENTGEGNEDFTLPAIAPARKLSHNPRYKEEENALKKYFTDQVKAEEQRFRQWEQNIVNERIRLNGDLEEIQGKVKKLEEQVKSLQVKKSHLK
UniProt P32458: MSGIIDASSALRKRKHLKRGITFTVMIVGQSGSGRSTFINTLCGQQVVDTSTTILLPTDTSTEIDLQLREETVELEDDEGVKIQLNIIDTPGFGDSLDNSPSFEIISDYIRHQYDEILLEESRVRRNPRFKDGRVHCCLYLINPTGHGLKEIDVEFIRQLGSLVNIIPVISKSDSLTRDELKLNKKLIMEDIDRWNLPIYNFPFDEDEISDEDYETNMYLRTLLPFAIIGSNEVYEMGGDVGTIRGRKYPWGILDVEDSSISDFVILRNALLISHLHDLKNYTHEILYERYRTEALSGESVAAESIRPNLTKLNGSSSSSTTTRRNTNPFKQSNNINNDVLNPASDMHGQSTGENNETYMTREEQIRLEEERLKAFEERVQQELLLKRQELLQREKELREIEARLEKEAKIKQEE

Target: budding yeast septin complex Cdc10-GFP-Cdc3-Cdc12-Cdc11 (budding yeast) (UniProt P25342+P32457+P32468+P32458)
Assay: fluorescence microscopy of binding to GUVs

binding: no binding
Substance: streptavidin labeled with Atto647N (from UniProt P22629 25-183)
